# Primary screen of a compound library

Sequences of proteins named here, by UniProt entry; tags and fusion partners are left off. Residues count along the entry.
UniProt A4I591, 1-473: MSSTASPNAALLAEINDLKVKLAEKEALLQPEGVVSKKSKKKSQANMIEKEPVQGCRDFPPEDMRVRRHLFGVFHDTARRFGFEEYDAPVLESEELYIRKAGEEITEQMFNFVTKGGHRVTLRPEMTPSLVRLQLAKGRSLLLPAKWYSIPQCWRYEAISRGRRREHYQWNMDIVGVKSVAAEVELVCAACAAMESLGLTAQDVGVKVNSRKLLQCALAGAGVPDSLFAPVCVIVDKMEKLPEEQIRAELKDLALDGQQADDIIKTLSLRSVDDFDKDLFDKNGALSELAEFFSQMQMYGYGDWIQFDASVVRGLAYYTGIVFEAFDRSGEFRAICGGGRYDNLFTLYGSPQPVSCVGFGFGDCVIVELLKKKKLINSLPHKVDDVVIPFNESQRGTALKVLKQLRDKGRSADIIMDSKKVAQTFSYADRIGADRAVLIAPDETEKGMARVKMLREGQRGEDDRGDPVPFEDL

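Enzyme assay of histidyl-tRNA synthetase; the read-out is not stated. Target: Histidine-tRNA ligase, Leishmania infantum (UniProt A4I591). Compounds at 30 µM. Direction is inferred from retests: higher values go with stronger inhibition. The assay is labelled LdHisRS but filed under L. infantum. About 69,000 compounds were tested under these conditions; 0.6% (about 410) showed 50% or more at least once.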

The filed quantity is “Percent Effect” (%). The record does not define 0% and 100%; most values in the screen are far below 50% and negative numbers occur (in some assays of this library far below -100). Compounds were drawn at random from those tested, without regard to their results.

For CN(C)C(=O)CO[C@@H]1CN(Cc2ccccc2F)[C@@H]2CCCO[C@@H]21 the result was 9.589%.
For CCC[C@@H]1CN(C(=O)c2ccccc2C(C)=O)C[C@H]1N(C)C the result was 8.571%.
For CN(Cc1cccnc1)C[C@@H]1OC[C@H]2CN(Cc3ccco3)CC[C@H]21 the result was 25%.
For CN1CC2(CCCN(c3nc(N)nc4c3CCCC4)C2)OC1=O (stereo not shown) the result was 16.87%.
For CC(=O)N1CCC2(CCN(C(=O)c3ccc(C)c(C(F)(F)F)c3)CC2)C1 the result was -1.961%.
For CC(=O)N1CCN(C(=O)NCc2ccccc2Cn2ccnc2)CC1 the result was 11.29%.
For NC(=O)CN1CCOCC(Cc2cccc(F)c2)C1 (stereo not shown) the result was 12%.
For CCc1ncc2c(n1)CN(Cc1nnc(C(C)C)o1)CC2 the result was 17.28%.
For CCCn1ccnc1SCC(=O)NC(Cc1ccccc1)C(C)=O (stereo not shown) the result was 22.86%.
For CC(NC(=O)Cn1cccn1)c1cccnc1 (stereo not shown) the result was 12.62%.
For O=C(C1=CCCC1)N1CCO[C@H]2[C@@H](OCC3CC3)CC[C@@H]21 the result was 9.434%.
For Cc1nnc(-c2cccc(N3CCC(NC(C)CC(C)C)CC3)c2)s1 (stereo not shown) the result was 12%.
For CN1CCCC(c2nccnc2-c2cccc(C(F)(F)F)c2)C1 (stereo not shown) the result was 1.399%.
For CC(C)CC(C)N(C)C(=O)CCn1cccn1 (stereo not shown) the result was 7.692%.
For Cc1cnn(CC2CCCN2CC(=O)Nc2nc(C)cs2)c1 (stereo not shown) the result was 21.88%.
For CCn1ccnc1CN1CCN(CCOc2ccccc2C#N)CC1 the result was 13.16%.
For CCOc1ccc2[nH]c3c(N(C)CC4OCCO4)ncnc3c2c1 the result was 1.124%.
For COc1ccc(Cl)cc1-c1nc(N)nc(N)n1 the result was 12.64%.
For Cn1ccnc1C1CCN(CCN2CCOCC2)CC1 the result was 6.452%.
For CC(=O)N[C@H](C)c1c(-c2ccc(Cl)cc2)noc1C(=O)O the result was 27.78%.
For COc1ccc(CN2C[C@@H]3CCCO[C@@H]3[C@H](NS(C)(=O)=O)C2)cc1 the result was 15.09%.
For O=C(C(CNCc1ccsc1)c1ccccc1)N1CCOCC1 (stereo not shown) the result was 19.81%.
For O=S(=O)(NCCC(O)c1ccoc1)c1ccc(Cl)s1 (stereo not shown) the result was 2.439%.
For CNc1nc(CNC(=O)Nc2cccc(C(C)OC)c2)cs1 (stereo not shown) the result was 12.84%.
For c1ccc(OCCCn2ccnc2-c2cn(C3CCNCC3)nn2)cc1 the result was 24.71%.
For Cc1ccc(C(=O)NC2CCN(Cc3cccc4c3OCCO4)CC2)s1 the result was 9.565%.
For CC(=O)N(Cc1noc(C)n1)C1CCN(Cc2cc(C)on2)C1 (stereo not shown) the result was 18.67%.
For Cn1cccc1C(=O)NS(=O)(=O)c1cnn(-c2ccccc2F)c1 the result was -6.897%.
For COCCN1CCO[C@@H]2CN(Cc3ccc(C)o3)C[C@@H]2C1 the result was 10.34%.
For CCCN(CCc1ccccn1)C(=O)CCc1cnn(C)c1 the result was 1.205%.
For CCc1noc(C)c1C(=O)N1CCCN(Cc2csc(C)n2)CC1 the result was 9.434%.
For Cc1nc(N)ncc1C(=O)N1CCCC(CCc2ccc(F)c(F)c2)C1 (stereo not shown) the result was 11.19%.
For O=C(Cc1ccc(-c2ccccc2)cc1)N1CCOCC(O)C1 (stereo not shown) the result was 12.8%.
For CSc1ncccc1C(=O)N1C[C@H]2CC[C@@H]1CN(CC(=O)N(C)C)C2 the result was -4%.
For O=C(c1cc(COc2ccc3c(c2)OCO3)[nH]n1)N1CCCC(O)C1 (stereo not shown) the result was 17.74%.
For Cc1ccccc1NC(=O)N1CCN(C(=O)C2CC2)[C@@H]2CS(=O)(=O)C[C@@H]21 the result was 4.918%.
For CCOCC(=O)N1C[C@@H]2CCN(c3cnccn3)C[C@@H]2C1 the result was 26.61%.
For COc1cccc(S(=O)(=O)NC(=O)c2c(C)noc2C(C)C)c1 the result was -60.38%.
For CC(=O)N1CCSCC1c1ccc(C)o1 (stereo not shown) the result was 8.602%.
For Cc1ncsc1C(=O)N1CCN(Cc2ccccc2)CC1C (stereo not shown) the result was 7.071%.
For CN(CC(=O)NCCC#N)C(c1ccccc1)c1ccccc1 the result was 4.464%.
For NCCc1nc(N[C@@H](CO)c2ccccc2)c2ccccc2n1 the result was 18.25%.
For CN1[C@H]2CC[C@@H]1CN(C(=O)c1nnc3n1CCCC3)CC2 the result was 8.889%.
For CCc1ncncc1C(=O)N1CCCN(Cc2ccc(C)cc2)CC1 the result was -10.61%.
For CCNC(=O)CNCc1c(C(C)C)nn(C)c1N1CCOCC1 the result was 12.04%.
For Cc1ccc(NCCCNc2nccc(-c3cn(C)nc3C)n2)nc1 the result was -2.778%.
For CC(C)Cc1noc(CN2CCOC(Cn3cncn3)C2)n1 (stereo not shown) the result was 15.38%.
For O=C(c1cscn1)N1CCC2(CN(Cc3ccoc3)C2)C1 the result was 9.677%.
For N#CCCN(CC1CCOC1)S(=O)(=O)c1cccc(Cl)c1 (stereo not shown) the result was 18.33%.
For Cc1nnc(N2CCO[C@H]3[C@@H](OCc4ccccn4)CC[C@@H]32)s1 the result was 27.03%.
For Cc1ccc(F)cc1NC(=O)CNc1cccc2c1CCCC2 the result was 9.836%.
For O=C(N1CCCC1)N1Cc2nccn2CC(CN2CCCC2)C1 (stereo not shown) the result was 10.53%.

5 of the entries, repeated:

CC(=O)N1CCSCC1c1ccc(C)o1 (stereo not shown) gave 8.602%.
COc1ccc(Cl)cc1-c1nc(N)nc(N)n1 gave 12.64%.
COc1cccc(S(=O)(=O)NC(=O)c2c(C)noc2C(C)C)c1 gave -60.38%.
Cn1cccc1C(=O)NS(=O)(=O)c1cnn(-c2ccccc2F)c1 gave -6.897%.
Cc1cnn(CC2CCCN2CC(=O)Nc2nc(C)cs2)c1 (stereo not shown) gave 21.88%.

Measurements from “University of Dundee, Small-Polar-MMV Screening Library” (2021), ChEMBL document CHEMBL3988442.